This test has as its target KDR-alkaline phosphatase (AP) soluble fusion protein (human) (UniProt P35968). Description: selection from second phage library on KDR.

Sequences of proteins named here, by UniProt entry; tags and fusion partners are left off. Residues count along the entry.
UniProt P35968, residues 20-764: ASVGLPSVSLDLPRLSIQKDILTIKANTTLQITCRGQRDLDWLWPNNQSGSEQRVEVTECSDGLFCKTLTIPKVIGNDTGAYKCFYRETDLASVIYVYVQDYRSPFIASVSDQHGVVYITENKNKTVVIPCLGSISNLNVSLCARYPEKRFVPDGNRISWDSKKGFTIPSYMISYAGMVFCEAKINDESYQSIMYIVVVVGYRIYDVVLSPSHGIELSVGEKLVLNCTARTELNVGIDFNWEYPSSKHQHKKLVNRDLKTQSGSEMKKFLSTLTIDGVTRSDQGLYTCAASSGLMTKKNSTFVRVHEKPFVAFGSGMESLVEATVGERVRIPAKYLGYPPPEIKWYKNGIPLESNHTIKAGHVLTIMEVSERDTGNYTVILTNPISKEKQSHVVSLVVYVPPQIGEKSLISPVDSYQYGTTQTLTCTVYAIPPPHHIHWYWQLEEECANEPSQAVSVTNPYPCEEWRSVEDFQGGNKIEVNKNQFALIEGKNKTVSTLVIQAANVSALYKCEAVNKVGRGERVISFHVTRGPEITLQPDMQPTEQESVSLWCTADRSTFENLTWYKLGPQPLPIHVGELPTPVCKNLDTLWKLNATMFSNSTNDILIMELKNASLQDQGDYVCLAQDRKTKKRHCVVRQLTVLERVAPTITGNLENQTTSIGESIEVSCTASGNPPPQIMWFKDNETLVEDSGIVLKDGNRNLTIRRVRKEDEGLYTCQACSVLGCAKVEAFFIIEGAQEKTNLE

These are yes or no findings as the source states them, for the method shown. Some results given as binding are weak or reduced against the parent protein; the word gives no strength.

B1: SF7 Fab (Fab, V domains shown)
VH: EVQLVQSGGGLVKPGGSLRLSCAASGFTFSSYSMNWVRQAPGKGLEWVSSISSSSSYIYYADSVKGRFTISRDNAKNSLYLQMNSLRAEDTAVYYCARVTDAFDIWGQGTMVTVSS
VL: QSVLTQPPSVSGAPGQRVTISCTGSHSNFGAGTDVHWYQHLPGTAPRLLIHGDTHRPSGVADRFSGSRSGASASLAITGLRVEDEADYYCQSYDYGLRGWVFGGGTKLTVL
For the molecule B1, the binding result is listed as “binds”.

(Values after patent US20050234225A1.)
